Results from article PMC11255314.
Results are given in words; binding and its absence hold for the method and conditions named. Binding seen in cells or lysates may run through a third protein. Some entries that bind do so weakly or less than the wild type. For some of these results: Tags and fused reporters may be left off the sequences shown. Each block holds one molecule with its values, some of them ahead of it.

Chains of the proteins cited; added tags and fusions are not shown.
UniProt Q9C0C2: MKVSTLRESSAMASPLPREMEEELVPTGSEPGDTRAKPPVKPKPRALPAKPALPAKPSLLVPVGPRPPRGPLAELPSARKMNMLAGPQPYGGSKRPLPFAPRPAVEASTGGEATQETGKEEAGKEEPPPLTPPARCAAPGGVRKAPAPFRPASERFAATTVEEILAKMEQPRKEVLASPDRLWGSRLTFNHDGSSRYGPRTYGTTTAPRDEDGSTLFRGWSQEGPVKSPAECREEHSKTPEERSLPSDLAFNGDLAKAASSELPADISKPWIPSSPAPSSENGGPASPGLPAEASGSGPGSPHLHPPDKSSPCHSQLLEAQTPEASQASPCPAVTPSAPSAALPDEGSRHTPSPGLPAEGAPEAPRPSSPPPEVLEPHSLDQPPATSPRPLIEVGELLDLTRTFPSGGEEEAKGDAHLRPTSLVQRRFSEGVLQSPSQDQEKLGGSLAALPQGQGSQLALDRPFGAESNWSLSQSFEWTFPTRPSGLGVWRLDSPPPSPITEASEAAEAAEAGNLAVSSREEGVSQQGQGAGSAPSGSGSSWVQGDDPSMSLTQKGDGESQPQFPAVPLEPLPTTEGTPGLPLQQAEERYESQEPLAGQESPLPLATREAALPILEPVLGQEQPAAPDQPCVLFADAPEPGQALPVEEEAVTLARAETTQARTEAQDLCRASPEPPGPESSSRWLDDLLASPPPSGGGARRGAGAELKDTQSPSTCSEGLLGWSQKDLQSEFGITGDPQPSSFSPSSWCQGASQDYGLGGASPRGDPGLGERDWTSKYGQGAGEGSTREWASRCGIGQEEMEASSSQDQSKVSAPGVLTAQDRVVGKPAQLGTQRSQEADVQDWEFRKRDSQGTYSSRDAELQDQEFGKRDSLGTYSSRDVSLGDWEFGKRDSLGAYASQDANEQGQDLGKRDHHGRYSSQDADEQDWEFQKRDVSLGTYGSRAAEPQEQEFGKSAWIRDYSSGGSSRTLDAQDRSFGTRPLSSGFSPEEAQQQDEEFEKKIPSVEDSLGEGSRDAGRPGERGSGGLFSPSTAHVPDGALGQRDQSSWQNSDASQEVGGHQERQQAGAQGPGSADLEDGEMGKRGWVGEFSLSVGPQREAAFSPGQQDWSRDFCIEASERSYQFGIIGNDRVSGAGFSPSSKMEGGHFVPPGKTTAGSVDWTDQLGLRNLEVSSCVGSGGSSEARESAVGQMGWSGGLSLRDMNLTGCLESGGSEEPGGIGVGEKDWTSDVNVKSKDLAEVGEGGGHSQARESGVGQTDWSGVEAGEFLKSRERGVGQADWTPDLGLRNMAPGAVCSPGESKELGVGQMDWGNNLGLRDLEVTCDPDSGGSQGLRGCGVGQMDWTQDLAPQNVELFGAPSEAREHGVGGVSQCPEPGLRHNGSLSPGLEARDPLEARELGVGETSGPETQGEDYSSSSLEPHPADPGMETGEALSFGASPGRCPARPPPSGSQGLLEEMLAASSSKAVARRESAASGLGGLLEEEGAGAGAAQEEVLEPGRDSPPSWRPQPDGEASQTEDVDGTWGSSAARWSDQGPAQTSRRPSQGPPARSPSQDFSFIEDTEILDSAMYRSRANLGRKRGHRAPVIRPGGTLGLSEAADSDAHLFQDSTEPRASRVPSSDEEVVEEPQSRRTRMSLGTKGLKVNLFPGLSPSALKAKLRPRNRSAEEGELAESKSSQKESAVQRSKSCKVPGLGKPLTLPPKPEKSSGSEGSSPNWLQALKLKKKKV
UniProt P19474: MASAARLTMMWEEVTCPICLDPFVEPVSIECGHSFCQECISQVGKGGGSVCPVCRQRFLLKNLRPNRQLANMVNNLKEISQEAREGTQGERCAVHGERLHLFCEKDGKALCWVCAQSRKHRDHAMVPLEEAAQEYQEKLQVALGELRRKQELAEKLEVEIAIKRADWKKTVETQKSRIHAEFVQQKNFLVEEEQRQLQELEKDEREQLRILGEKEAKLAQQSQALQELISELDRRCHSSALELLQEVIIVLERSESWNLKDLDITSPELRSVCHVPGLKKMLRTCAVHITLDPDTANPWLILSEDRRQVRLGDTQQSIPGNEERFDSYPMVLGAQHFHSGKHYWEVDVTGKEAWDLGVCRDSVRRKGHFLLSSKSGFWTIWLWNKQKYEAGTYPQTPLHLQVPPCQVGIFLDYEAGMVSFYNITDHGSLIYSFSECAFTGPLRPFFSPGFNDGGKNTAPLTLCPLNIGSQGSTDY

Experiments:
[1] = target: T1, CNOT4, endogenous in HCC cells (not stated (endogenous in HCC cells, line not named)) (UniProt O95628); assay: co-IP; endogenous co-IP in HCC cells
T1 sequence: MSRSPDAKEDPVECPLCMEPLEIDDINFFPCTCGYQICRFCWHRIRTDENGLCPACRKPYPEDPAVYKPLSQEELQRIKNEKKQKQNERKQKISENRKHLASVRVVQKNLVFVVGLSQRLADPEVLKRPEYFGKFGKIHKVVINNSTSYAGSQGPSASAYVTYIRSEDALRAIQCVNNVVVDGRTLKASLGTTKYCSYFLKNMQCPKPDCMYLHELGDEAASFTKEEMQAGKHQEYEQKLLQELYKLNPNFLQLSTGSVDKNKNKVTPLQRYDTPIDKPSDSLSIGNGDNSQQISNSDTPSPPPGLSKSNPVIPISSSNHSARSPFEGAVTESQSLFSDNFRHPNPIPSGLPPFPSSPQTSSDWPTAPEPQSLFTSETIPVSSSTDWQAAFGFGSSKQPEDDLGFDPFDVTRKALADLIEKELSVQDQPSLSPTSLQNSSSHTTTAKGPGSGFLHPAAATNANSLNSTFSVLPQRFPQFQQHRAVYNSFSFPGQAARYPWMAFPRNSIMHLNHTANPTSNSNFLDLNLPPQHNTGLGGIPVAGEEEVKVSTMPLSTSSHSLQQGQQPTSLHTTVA

[2] = target: TNKS1BP1, endogenous in HCC cells (not stated (endogenous in HCC cells, line not named)) (UniProt Q9C0C2); assay: co-IP; endogenous co-IP in HCC cells
[3] = target: T2, Myc-CNOT4 (CCR4-NOT transcription complex subunit 4), full length (UniProt O95628); assay: co-IP; HEK293T cells transfected with both tagged partners (full-length or truncated); lysates immunoprecipitated with anti-Flag or anti-Myc antibodies, WB
T2 sequence: T1 sequence

[4] = target: T3, Myc-CNOT4 truncated mutant, RRM domain (UniProt O95628); assay: as above
T3 sequence: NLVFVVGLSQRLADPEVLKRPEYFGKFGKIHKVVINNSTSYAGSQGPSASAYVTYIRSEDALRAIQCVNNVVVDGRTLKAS

[5] = target: T2, Myc-CNOT4 (CCR4-NOT transcription complex subunit 4), full length; assay: co-IP; HEK293T cells transfected with Flag-TNKS1BP1 or Myc-CNOT4 plasmids only; lysates immunoprecipitated with anti-Flag or anti-Myc antibodies, immunoblotting for the E3 ligases
[6] = target: Flag-TNKS1BP1 (tankyrasel binding protein 1) (UniProt Q9C0C2); assay: as above

- binding [3]: binds
- binding [4]: binds
Molecule: Flag-TRIM21, full length (from UniProt P19474 1-475)

- binding [5]: binds
- binding [6]: binds
Molecule: TRIM21 (tripartite motif containing 21) in HEK293T lysate (from UniProt P19474 1-475)

The next lines start with the molecule.

Molecule: TRIM21, endogenous in HCC cells (from UniProt P19474 1-475)
- binding [1]: binds
- binding [2]: binds

B1: TRIM33 in HEK293T lysate (protein, UniProt Q9UPN9 1-1127)
chain: MAENKGGGEAESGGGGSGSAPVTAGAAGPAAQEAEPPLTAVLVEEEEEEGGRAGAEGGAAGPDDGGVAAASSGSAQAASSPAASVGTGVAGGAVSTPAPAPASAPAPGPSAGPPPGPPASLLDTCAVCQQSLQSRREAEPKLLPCLHSFCLRCLPEPERQLSVPIPGGSNGDIQQVGVIRCPVCRQECRQIDLVDNYFVKDTSEAPSSSDEKSEQVCTSCEDNASAVGFCVECGEWLCKTCIEAHQRVKFTKDHLIRKKEDVSESVGASGQRPVFCPVHKQEQLKLFCETCDRLTCRDCQLLEHKEHRYQFLEEAFQNQKGAIENLLAKLLEKKNYVHFAATQVQNRIKEVNETNKRVEQEIKVAIFTLINEINKKGKSLLQQLENVTKERQMKLLQQQNDITGLSRQVKHVMNFTNWAIASGSSTALLYSKRLITFQLRHILKARCDPVPAANGAIRFHCDPTFWAKNVVNLGNLVIESKPAPGYTPNVVVGQVPPGTNHISKTPGQINLAQLRLQHMQQQVYAQKHQQLQQMRMQQPPAPVPTTTTTTQQHPRQAAPQMLQQQPPRLISVQTMQRGNMNCGAFQAHQMRLAQNAARIPGIPRHSGPQYSMMQPHLQRQHSNPGHAGPFPVVSVHNTTINPTSPTTATMANANRGPTSPSVTAIELIPSVTNPENLPSLPDIPPIQLEDAGSSSLDNLLSRYISGSHLPPQPTSTMNPSPGPSALSPGSSGLSNSHTPVRPPSTSSTGSRGSCGSSGRTAEKTSLSFKSDQVKVKQEPGTEDEICSFSGGVKQEKTEDGRRSACMLSSPESSLTPPLSTNLHLESELDALASLENHVKIEPADMNESCKQSGLSSLVNGKSPIRSLMHRSARIGGDGNNKDDDPNEDWCAVCQNGGDLLCCEKCPKVFHLTCHVPTLLSFPSGDWICTFCRDIGKPEVEYDCDNLQHSKKGKTAQGLSPVDQRKCERLLLYLYCHELSIEFQEPVPASIPNYYKIIKKPMDLSTVKKKLQKKHSQHYQIPDDFVADVRLIFKNCERFNEMMKVVQVYADTQEINLKADSEVAQAGKAVALYFEDKLTEIYSDRTFAPLPEFEQEEDDGEVTEDSDEDFIQPRRKRLKSDERPVHIK
- binding [5]: binds
